Results reported in the supplement of paper PMC10849652.
This is one part of the list.

Amino acid sequences for entries named in this document (tags omitted). A change or cut given only in a name is not applied to a line headed by its entry.
UniProt Q9NS23: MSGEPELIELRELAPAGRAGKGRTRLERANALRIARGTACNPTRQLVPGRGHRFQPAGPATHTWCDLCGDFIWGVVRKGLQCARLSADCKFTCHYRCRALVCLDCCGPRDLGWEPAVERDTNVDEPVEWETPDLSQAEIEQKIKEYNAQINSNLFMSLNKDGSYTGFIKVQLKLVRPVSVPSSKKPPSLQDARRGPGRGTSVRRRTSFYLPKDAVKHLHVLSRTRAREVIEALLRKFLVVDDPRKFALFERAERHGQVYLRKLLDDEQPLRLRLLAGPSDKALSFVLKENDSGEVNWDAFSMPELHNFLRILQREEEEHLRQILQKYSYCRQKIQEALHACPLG
UniProt Q86U06: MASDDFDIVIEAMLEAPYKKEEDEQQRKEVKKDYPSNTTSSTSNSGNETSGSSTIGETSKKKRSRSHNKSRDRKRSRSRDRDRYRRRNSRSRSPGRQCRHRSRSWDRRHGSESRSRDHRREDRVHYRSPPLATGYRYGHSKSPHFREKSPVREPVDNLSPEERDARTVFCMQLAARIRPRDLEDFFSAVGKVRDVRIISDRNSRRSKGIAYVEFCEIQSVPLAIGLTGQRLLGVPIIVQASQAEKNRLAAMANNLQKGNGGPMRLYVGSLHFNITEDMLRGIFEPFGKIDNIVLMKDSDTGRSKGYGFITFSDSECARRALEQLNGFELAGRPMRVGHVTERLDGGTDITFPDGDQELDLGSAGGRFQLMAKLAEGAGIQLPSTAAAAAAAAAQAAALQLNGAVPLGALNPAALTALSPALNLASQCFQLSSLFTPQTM
UniProt Q9H477: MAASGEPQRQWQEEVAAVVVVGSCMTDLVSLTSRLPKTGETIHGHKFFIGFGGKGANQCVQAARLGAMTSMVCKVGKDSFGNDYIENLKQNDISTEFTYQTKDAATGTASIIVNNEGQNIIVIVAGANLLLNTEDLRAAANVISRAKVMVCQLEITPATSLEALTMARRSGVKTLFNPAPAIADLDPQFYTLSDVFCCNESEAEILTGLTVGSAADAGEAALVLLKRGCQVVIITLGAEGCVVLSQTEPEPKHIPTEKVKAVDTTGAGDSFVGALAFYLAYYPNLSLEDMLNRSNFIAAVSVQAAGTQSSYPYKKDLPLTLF
UniProt Q86X27: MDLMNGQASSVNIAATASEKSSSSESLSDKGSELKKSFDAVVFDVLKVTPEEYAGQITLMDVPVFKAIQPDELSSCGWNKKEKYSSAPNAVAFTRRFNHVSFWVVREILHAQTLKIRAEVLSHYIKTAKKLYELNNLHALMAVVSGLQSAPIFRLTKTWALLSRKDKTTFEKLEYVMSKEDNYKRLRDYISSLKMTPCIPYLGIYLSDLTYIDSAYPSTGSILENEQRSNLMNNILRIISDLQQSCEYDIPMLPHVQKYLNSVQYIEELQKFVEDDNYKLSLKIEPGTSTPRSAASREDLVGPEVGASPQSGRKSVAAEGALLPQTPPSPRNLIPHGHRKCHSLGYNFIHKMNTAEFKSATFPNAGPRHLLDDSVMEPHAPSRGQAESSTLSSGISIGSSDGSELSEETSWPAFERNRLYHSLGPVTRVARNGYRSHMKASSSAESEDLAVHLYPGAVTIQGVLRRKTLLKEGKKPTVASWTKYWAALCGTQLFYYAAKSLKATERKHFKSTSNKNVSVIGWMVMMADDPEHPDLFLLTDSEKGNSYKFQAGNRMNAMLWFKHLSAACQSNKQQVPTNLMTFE
UniProt P54725: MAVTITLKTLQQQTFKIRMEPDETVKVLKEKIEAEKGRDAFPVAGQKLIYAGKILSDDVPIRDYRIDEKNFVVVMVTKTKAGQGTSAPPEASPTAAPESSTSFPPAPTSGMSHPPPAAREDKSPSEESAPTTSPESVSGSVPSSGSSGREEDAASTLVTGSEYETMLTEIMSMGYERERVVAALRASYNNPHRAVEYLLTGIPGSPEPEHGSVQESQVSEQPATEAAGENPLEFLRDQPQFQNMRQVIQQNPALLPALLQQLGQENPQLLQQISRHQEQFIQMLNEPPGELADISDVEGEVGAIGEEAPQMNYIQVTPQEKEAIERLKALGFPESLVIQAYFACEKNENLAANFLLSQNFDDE
UniProt O75943: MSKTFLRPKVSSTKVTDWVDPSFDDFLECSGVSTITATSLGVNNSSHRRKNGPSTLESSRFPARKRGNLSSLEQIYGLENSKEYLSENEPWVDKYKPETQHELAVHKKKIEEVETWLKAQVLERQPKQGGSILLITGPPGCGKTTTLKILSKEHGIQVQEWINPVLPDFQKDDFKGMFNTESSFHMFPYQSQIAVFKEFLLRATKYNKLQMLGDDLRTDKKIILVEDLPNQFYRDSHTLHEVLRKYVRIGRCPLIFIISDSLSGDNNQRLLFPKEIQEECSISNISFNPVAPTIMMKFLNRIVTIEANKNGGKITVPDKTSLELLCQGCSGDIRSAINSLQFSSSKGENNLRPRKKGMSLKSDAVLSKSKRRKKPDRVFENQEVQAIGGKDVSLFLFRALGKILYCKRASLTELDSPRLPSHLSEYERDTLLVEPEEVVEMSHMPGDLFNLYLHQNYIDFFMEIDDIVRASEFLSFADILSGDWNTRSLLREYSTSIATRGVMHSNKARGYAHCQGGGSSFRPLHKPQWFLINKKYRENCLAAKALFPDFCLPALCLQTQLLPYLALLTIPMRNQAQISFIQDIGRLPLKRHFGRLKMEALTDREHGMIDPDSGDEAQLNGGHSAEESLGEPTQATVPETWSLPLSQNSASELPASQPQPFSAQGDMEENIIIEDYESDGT
UniProt O75884: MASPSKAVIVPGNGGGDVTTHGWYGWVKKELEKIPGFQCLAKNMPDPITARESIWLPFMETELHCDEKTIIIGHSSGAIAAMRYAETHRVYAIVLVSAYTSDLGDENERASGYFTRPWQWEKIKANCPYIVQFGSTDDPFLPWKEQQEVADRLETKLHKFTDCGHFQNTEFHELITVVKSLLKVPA
UniProt Q99708: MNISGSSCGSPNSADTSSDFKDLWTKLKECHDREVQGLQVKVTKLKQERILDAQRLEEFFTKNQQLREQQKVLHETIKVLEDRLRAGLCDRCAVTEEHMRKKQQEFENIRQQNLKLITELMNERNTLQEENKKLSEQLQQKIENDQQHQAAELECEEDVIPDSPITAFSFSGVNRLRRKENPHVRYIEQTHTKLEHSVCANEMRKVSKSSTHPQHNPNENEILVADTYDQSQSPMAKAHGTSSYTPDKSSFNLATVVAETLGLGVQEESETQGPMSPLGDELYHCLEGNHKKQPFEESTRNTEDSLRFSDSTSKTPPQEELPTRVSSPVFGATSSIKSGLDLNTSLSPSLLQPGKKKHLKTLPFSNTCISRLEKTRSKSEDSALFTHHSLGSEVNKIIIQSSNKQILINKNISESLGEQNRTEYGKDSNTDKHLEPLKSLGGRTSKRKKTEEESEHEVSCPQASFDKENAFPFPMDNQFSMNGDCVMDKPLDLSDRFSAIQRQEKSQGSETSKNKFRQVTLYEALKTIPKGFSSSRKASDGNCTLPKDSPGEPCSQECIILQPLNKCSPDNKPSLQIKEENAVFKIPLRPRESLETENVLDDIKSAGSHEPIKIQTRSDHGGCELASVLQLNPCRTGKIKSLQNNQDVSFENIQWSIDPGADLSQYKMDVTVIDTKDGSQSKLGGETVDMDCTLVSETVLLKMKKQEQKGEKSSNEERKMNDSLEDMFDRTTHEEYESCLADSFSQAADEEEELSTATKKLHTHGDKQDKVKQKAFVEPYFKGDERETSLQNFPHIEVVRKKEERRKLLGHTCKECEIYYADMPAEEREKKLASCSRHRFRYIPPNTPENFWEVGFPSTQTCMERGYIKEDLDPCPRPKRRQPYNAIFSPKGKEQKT
UniProt Q9H6Z4: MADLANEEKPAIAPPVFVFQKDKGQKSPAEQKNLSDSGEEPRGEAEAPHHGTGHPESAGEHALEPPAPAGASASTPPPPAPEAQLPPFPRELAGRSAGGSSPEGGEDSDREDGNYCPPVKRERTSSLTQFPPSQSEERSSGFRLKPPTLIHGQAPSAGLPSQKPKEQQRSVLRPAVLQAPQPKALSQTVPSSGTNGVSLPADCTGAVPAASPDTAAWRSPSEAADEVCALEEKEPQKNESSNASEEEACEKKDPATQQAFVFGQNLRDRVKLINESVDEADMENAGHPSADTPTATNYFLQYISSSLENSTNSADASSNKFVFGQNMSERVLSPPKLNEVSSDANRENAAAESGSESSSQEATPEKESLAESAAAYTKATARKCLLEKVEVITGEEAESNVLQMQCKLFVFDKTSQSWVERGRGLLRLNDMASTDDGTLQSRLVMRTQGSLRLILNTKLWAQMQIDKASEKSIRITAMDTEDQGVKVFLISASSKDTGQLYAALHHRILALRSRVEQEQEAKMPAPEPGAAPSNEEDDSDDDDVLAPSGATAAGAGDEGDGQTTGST
UniProt Q96D70: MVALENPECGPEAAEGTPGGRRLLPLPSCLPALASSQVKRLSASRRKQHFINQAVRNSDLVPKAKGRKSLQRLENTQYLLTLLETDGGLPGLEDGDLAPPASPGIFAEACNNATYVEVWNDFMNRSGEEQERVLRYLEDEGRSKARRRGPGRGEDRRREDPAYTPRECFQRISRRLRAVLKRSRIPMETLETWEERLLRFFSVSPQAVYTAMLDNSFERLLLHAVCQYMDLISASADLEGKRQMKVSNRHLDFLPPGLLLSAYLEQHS
UniProt Q9H5N1: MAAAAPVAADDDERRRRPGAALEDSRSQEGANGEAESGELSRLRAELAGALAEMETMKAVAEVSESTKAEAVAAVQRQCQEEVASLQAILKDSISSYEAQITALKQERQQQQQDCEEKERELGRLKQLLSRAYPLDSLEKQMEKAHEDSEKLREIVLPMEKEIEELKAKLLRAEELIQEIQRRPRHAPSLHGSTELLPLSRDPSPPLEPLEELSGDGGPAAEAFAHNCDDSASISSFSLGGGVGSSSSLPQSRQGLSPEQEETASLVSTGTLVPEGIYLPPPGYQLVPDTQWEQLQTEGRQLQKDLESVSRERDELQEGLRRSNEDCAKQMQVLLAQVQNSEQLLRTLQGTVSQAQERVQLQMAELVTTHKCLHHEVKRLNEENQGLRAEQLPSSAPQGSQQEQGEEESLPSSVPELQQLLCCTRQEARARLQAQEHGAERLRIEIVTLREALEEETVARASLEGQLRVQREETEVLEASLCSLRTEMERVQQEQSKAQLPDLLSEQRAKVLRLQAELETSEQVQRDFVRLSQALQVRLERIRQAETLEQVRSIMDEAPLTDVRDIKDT
UniProt Q8N0V3: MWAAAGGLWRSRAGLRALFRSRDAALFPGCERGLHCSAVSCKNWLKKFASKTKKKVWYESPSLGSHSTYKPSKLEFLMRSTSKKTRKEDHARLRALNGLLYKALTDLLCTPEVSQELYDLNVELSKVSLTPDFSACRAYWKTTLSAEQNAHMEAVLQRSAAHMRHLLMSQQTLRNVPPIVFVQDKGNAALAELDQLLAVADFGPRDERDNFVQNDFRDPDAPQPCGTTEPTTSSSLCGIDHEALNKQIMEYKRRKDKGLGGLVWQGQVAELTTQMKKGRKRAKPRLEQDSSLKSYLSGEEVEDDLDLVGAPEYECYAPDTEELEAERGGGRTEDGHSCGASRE

Columns and labels:
Assay in all cases: log2 fold change, soluble protein after heating vs DMSO (PISA); higher = thermal stabilisation; K562 cells, 10 uM, 30 min; active = over 0.2 and 3.5 SD of the protein, either way, in both replicates (recomputed)
[1] = compound: CS(=O)(=O)c1ccc(-c2cnc(N)c(C(=O)Nc3ccccc3)n2)cc1
Method in brief: (§1)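 Aliquots of K562 cells (2×10^6 cells/mL) treated with 10 μM compound for 30 min were heated for 3 min over 48°C-58°C. After pooling and extraction in PBS with 0.5% NP-40 at 4°C, soluble protein from a 21,000xg, 90 min spin was quantified by TMTpro 16plex LC-MS/MS with channel sums equalised. Thermal stability is expressed against control samples, from duplicates, as a log2 fold change.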

[2] = compound: Cc1ccc(C(=O)N(CCCN)[C@@H](c2nc3cc(Cl)ccc3c(=O)n2Cc2ccccc2)C(C)C)cc1 [ispinesib]
Method in brief: as §1

[3] = compound: Cn1cc(-c2ccc3nnc(C(F)(F)c4ccc5ncccc5c4)n3n2)cn1
Method in brief: as §1

[4] = compound: C[C@@H]1COCCN1C2=NC(=NC(=C2)C3(CC3)S(=O)(=O)C)C4=C5C=CNC5=CC=C4
Method in brief: as §1

[5] = compound: C[C@H](C1=CC=C(C=C1)C(=O)NC2=C3C=CNC3=NC=C2)N
Method in brief: as §1

[6] = compound: C[C@H](Nc1ncnc2nc[nH]c12)c1cc2cccc(Cl)c2c(=O)n1-c1ccccc1 [duvelisib]
Method in brief: as §1

[7] = compound: Cc1cc(SCc2sc(-c3ccc(C(F)(F)F)cc3)nc2C)ccc1OCC(=O)O
Method in brief: as §1

[8] = compound: Cc1ccc(NC(=O)c2ccc(CN3CC[C@H](N(C)C)C3)c(C(F)(F)F)c2)cc1Nc1nccc(-c2cncnc2)n1 [bafetinib]
Method in brief: as §1

[9] = compound: Cc1nc(Nc2ncc(C(=O)Nc3c(C)cccc3Cl)s2)cc(N2CCN(CCO)CC2)n1 [dasatinib]
Method in brief: as §1

[10] = compound: Cn1cc(-c2ccc3c(c2)CCN3C(=O)Cc2cccc(C(F)(F)F)c2)c2c(N)ncnc21
Method in brief: as §1

[11] = compound: Cn1cncc1[C@@](N)(c1ccc(Cl)cc1)c1ccc2c(c1)c(-c1cccc(Cl)c1)cc(=O)n2C [tipifarnib]
Method in brief: as §1

[12] = compound: FC(F)(F)c1ccc(/C=C/c2nc(COc3ccc(CCCCn4ccnn4)cc3)co2)cc1 [mubritinib]
Method in brief: as §1

[13] = compound: C[C@@H](Oc1cc(-c2cnn(C3CCNCC3)c2)cnc1N)c1c(Cl)ccc(F)c1Cl [crizotinib]
Method in brief: as §1

[14] = compound: Cc1cc(Nc2cc(CN3CCOCC3)c3nc(C)c(Cc4ccc(Cl)cc4F)n3n2)n[nH]1 [gandotinib]
Method in brief: as §1

[15] = compound: Cc1ccc(-n2nc(C(C)(C)C)cc2NC(=O)Nc2ccc(OCCN3CCOCC3)c3ccccc23)cc1 [doramapimod]
Method in brief: as §1

[16] = compound: Cc1cccc(CC(=O)N2CCc3c2ccc(-c2cn(C)c4ncnc(N)c24)c3F)n1
Method in brief: as §1

[17] = compound: Cc1cn(-c2cc(NC(=O)c3ccc(C)c(Nc4nccc(-c5cccnc5)n4)c3)cc(C(F)(F)F)c2)cn1 [nilotinib]
Method in brief: as §1

[18] = compound: Cc1nc(Nc2n[nH]c3c2CN(C(=O)N[C@H](CN(C)C)c2ccccc2)C3(C)C)c2sccc2n1
Method in brief: as §1

[19] = compound: Cc1ncc(-c2ccnc(Nc3ccc(S(C)(=O)=O)cc3)n2)n1C(C)C
Method in brief: as §1

[20] = compound: Cc1cc(Nc2cc(N3CCN(C)CC3)nc(Sc3ccc(NC(=O)C4CC4)cc3)n2)n[nH]1 [tozasertib]
Method in brief: as §1

Measured: log2 fold change

RASSF1 (UniProt Q9NS23)
inactive: [1] 0.043 | [2] -0.276 | [3] -0.104

RBM23 (UniProt Q86U06)
inactive: [1] 0.086 | [4] 0.15 | [5] -0.031 | [6] 0.043 | [7] 0.111 | [2] 0.217 | [8] -0.028 | [9] 0.005 | [10] -0.029 | [3] -0.09 | [11] 0.203

RBKS (UniProt Q9H477)
inactive: [2] -0.145 | [3] -0.019 | [11] 0.308 | [12] 0.008

RALGPS2 (UniProt Q86X27)
inactive: [13] -0.237 | [4] -0.199 | [5] 0.222 | [14] 0.08 | [7] 0.106 | [15] 0.289 | [8] -0.072 | [16] -0.001 | [9] -0.011 | [10] 0.043 | [12] -0.198

RAD23A isoform 3 (UniProt P54725)
inactive: [14] 0.272 | [16] -0.312 | [17] -0.143 | [18] 0.456 | [19] 0.052

RAD17 (UniProt O75943)
inactive: [13] 0.13 | [6] 0.025 | [20] -0.023 | [7] 0.128 | [15] 0.085 | [9] -0.525

RBBP9 (UniProt O75884)
inactive: [1] 0.074 | [4] -0.098 | [12] 0.157

RAP1B (UniProt F5GWU8)
inactive: [13] 0.085 | [5] 0.075 | [6] 0.015 | [7] -0.11 | [15] -0.088 | [2] 0.082 | [9] 0.019 | [10] 0.007 | [3] -0.046 | [11] 0.267

Copied from the results shown (2 entries):
RBBP9 (UniProt O75884)
inactive: [1] 0.074 | [4] -0.098 | [12] 0.157

RAP1B (UniProt F5GWU8)
inactive: [13] 0.085 | [5] 0.075 | [6] 0.015 | [7] -0.11 | [15] -0.088 | [2] 0.082 | [9] 0.019 | [10] 0.007 | [3] -0.046 | [11] 0.267

Carrying on:

RBBP8 isoform 2 (UniProt Q99708)
inactive: [13] 0.212 | [20] -0.087 | [15] -0.067 | [11] 0.176

RANBP3 isoform 2 (UniProt Q9H6Z4)
inactive: [1] -0.215 | [14] 0.041 | [20] -0.095 | [8] -0.023 | [16] -0.036 | [17] 0.041 | [18] -0.03 | [19] -0.019 | [12] 0.008

R3HDM4 (UniProt Q96D70)
inactive: [1] 0.124 | [4] -0.023 | [6] 0.056 | [20] -0.092 | [7] 0.182 | [8] -0.013 | [17] -0.084 | [18] -0.007 | [9] -0.243 | [19] -0.007 | [11] 0.059 | [12] 0.229

RABEP2 (UniProt Q9H5N1)
inactive: [5] 0.015 | [2] -0.008 | [10] 0.061 | [3] 0.049

RBFA (UniProt Q8N0V3)
inactive: [11] -0.212
